Measurements as given in paper PMC7652866.
No constants are given. Whether binding was seen depends on the method and setting. Binding seen in cells or lysates may run through a third protein. Some entries that bind do so weakly or less than the wild type.

T1: nucleoporin NUP88 (human (endogenous in MRC5)) (UniProt Q99567)
T1 sequence: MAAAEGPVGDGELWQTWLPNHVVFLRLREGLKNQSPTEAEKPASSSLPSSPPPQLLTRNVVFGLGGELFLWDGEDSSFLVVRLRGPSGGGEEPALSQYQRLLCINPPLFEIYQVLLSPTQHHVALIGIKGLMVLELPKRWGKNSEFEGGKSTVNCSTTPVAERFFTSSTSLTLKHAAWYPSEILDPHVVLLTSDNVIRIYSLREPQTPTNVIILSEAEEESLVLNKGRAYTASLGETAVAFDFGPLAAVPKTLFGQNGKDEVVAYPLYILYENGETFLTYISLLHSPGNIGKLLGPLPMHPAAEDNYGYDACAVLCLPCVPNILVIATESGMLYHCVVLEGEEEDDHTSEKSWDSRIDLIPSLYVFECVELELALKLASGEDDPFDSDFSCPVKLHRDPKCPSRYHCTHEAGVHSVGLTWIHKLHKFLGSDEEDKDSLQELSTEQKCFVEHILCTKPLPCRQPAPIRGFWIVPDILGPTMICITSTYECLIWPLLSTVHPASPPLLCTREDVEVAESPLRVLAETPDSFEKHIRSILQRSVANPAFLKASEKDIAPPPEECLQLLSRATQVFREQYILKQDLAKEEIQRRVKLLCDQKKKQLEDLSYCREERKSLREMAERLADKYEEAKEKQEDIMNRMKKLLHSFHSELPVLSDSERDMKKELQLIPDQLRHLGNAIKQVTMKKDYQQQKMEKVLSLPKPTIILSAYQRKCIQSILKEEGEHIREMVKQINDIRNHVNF


Target: T1, nucleoporin NUP88 (human (endogenous in MRC5))
Experiment: proximity ligation; Duolink PLA Fluorescent Detection (red), anti-mouse PLUS and anti-rabbit MINUS probes, on fixed MRC5, FADS 1 and FADS 2 fibroblasts; rabbit anti-rapsyn, rabbit or mouse anti-γ-tubulin, mouse anti-NUP88; foci mean a distance of at most 40 nm; foci per cell counted

Row | binding | Binder
1 | binds | rapsyn (receptor-associated protein of the synapse) (protein, UniProt Q13702-1 1-412) MGQDQTKQQIEKGLQLYQSNQTEKALQVWTKVLEKSSDLMGRFRVLGCLVTAHSEMGRYKEMLKFAVVQIDTARELEDADFLLESYLNLARSNEKLCEFHKTISYCKTCLGLPGTRAGAQLGGQVSLSMGNAFLGLSVFQKALESFEKALRYAHNNDDAMLECRVCCSLGSFYAQVKDYEKALFFPCKAAELVNNYGKGWSLKYRAMSQYHMAVAYRLLGRLGSAMECCEESMKIALQHGDRPLQALCLLCFADIHRSRGDLETAFPRYDSAMSIMTEIGNRLGQVQALLGVAKCWVARKALDKALDAIERAQDLAEEVGNKLSQLKLHCLSESIYRSKGLQRELRAHVVRFHECVEETELYCGLCGESIGEKNSRLQALPCSHIFHLRCLQNNGTRSCPNCRRSSMKPGFV
2 | binds | rapsyn E162K mutant protein (protein, UniProt Q13702-1 1-412) MGQDQTKQQIEKGLQLYQSNQTEKALQVWTKVLEKSSDLMGRFRVLGCLVTAHSEMGRYKEMLKFAVVQIDTARELEDADFLLESYLNLARSNEKLCEFHKTISYCKTCLGLPGTRAGAQLGGQVSLSMGNAFLGLSVFQKALESFEKALRYAHNNDDAMLKCRVCCSLGSFYAQVKDYEKALFFPCKAAELVNNYGKGWSLKYRAMSQYHMAVAYRLLGRLGSAMECCEESMKIALQHGDRPLQALCLLCFADIHRSRGDLETAFPRYDSAMSIMTEIGNRLGQVQALLGVAKCWVARKALDKALDAIERAQDLAEEVGNKLSQLKLHCLSESIYRSKGLQRELRAHVVRFHECVEETELYCGLCGESIGEKNSRLQALPCSHIFHLRCLQNNGTRSCPNCRRSSMKPGFV
